This is a selection; strong and weak results do not stand in their true shares. At the low end of the ranking, values are background and their order means little.
Key:
Assay in all cases: DAPPL (digital affinity profiling via proximity ligation, sequencing)
Details in all cases: 10 mM Tris-HCl pH 7.5, 50 mM NaCl, 1 mM DTT, 4% glycerol, room temperature, 30 min; GST-TFs on glutathione beads, 16-mer random dsDNA library, 0.1% …; high values mean tight binding; double strand, one strand shown; scale: fold enrichment (6-mer frequency, TF over GST control)
ELK1 = molecular target: T1, ELK1 (UniProt P19419)
T1 sequence: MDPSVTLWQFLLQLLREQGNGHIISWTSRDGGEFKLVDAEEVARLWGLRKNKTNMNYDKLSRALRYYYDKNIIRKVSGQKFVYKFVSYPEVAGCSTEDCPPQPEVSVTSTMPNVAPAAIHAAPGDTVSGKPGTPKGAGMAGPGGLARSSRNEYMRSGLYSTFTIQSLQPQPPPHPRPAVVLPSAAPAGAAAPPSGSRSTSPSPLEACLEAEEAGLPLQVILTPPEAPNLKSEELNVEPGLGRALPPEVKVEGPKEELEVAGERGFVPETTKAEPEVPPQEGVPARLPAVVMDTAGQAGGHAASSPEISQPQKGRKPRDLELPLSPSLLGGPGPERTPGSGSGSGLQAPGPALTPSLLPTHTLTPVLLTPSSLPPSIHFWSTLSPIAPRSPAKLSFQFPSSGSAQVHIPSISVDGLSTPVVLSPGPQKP

ELK3 = molecular target: T2, ELK3 (UniProt P41970)
T2 sequence: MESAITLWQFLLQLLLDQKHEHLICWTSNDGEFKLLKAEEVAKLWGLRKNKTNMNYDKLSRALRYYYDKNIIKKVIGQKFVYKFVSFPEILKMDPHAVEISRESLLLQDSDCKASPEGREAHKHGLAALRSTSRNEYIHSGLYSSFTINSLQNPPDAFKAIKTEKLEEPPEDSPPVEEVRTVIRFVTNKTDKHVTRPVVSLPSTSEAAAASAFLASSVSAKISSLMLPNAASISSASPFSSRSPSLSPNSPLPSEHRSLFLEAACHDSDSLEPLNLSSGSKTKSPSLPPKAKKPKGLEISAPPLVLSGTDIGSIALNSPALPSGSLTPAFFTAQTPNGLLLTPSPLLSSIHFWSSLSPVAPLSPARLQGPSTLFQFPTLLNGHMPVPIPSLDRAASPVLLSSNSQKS

SPIC = molecular target: T3, SPIC (UniProt Q8N5J4)
T3 sequence: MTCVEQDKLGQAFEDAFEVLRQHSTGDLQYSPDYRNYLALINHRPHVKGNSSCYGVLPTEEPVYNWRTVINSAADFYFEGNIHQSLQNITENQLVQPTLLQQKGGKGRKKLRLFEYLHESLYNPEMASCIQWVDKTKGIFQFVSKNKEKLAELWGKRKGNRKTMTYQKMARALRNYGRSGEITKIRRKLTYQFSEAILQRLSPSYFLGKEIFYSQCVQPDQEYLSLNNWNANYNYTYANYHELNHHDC

ETS2 = molecular target: T4, ETS2 (UniProt P15036)
T4 sequence: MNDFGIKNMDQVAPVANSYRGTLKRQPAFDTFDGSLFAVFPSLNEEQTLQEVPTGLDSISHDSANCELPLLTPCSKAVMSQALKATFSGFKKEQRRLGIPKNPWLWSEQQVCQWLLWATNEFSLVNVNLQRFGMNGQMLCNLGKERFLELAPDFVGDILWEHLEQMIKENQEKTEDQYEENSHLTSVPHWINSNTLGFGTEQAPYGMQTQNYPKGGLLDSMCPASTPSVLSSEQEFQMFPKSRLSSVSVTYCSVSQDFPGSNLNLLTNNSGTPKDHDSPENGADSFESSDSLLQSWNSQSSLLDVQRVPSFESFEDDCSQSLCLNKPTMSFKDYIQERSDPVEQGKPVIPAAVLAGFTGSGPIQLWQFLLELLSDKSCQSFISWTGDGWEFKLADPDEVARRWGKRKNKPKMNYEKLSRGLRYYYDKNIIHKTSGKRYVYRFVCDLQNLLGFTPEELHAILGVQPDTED

ETV3 = molecular target: T5, ETV3 (UniProt P41162-2)
T5 sequence: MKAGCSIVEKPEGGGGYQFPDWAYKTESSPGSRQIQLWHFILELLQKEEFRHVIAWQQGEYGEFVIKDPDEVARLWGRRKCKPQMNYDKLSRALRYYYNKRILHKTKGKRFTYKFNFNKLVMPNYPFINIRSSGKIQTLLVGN

## TTTAGA
ELK1
  binding signal: 0.995
ELK3
  binding signal: 0.991
SPIC
  binding signal: 0.935
ETS2
  binding signal: 0.943
ETV3
  binding signal: 0.998

## GGTTGT
ELK1
  binding signal: 0.9
ELK3
  binding signal: 0.86
SPIC
  binding signal: 0.896
ETS2
  binding signal: 0.995
ETV3
  binding signal: 0.853

## ATAGTG
ELK1
  binding signal: 0.935
ELK3
  binding signal: 0.827
SPIC
  binding signal: 0.894
ETS2
  binding signal: 0.905
ETV3
  binding signal: 0.905

## AATCGT
ELK1
  binding signal: 0.817
ELK3
  binding signal: 0.778
SPIC
  binding signal: 0.876
ETS2
  binding signal: 0.896
ETV3
  binding signal: 0.919

## AGAGAT
ELK1
  binding signal: 0.905
ELK3
  binding signal: 0.924
SPIC
  binding signal: 0.875
ETS2
  binding signal: 0.845
ETV3
  binding signal: 0.883

## ATAGGT
ELK1
  binding signal: 1.01
ELK3
  binding signal: 0.985
SPIC
  binding signal: 1.01
ETS2
  binding signal: 0.987
ETV3
  binding signal: 1.06

## GCGTCA
ELK1
  binding signal: 0.99
ELK3
  binding signal: 0.962
SPIC
  binding signal: 0.987
ETS2
  binding signal: 0.978
ETV3
  binding signal: 0.912

## GAAAGT
ELK1
  binding signal: 0.833
ELK3
  binding signal: 0.905
SPIC
  binding signal: 0.753
ETS2
  binding signal: 0.896
ETV3
  binding signal: 0.881

## GACGTT
ELK1
  binding signal: 0.924
ELK3
  binding signal: 0.857
SPIC
  binding signal: 0.9
ETS2
  binding signal: 0.884
ETV3
  binding signal: 0.92

## GCCGTC
ELK1
  binding signal: 1.03
ELK3
  binding signal: 0.919
SPIC
  binding signal: 0.976
ETS2
  binding signal: 0.958
ETV3
  binding signal: 0.906

## CCATAG
ELK1
  binding signal: 0.913
ELK3
  binding signal: 0.948
SPIC
  binding signal: 0.941
ETS2
  binding signal: 0.84
ETV3
  binding signal: 0.915

## TGTTGG
ELK1
  binding signal: 0.93
ELK3
  binding signal: 0.891
SPIC
  binding signal: 0.862
ETS2
  binding signal: 0.842
ETV3
  binding signal: 0.932

## TAAGGA
ELK1
  binding signal: 0.855
ELK3
  binding signal: 0.951
SPIC
  binding signal: 0.917
ETS2
  binding signal: 0.881
ETV3
  binding signal: 0.953

## CATCGT
ELK1
  binding signal: 0.917
ELK3
  binding signal: 0.926
SPIC
  binding signal: 0.87
ETS2
  binding signal: 0.898
ETV3
  binding signal: 0.896

## TAAGAC
ELK1
  binding signal: 0.91
ELK3
  binding signal: 0.893
SPIC
  binding signal: 0.992
ETS2
  binding signal: 0.907
ETV3
  binding signal: 0.879

## CATAGC
ELK1
  binding signal: 0.971
ELK3
  binding signal: 0.964
SPIC
  binding signal: 0.769
ETS2
  binding signal: 0.963
ETV3
  binding signal: 0.972

## TGTTAG
ELK1
  binding signal: 0.981
ELK3
  binding signal: 0.907
SPIC
  binding signal: 0.869
ETS2
  binding signal: 0.985
ETV3
  binding signal: 0.964

## GTGTAA
ELK1
  binding signal: 0.845
ELK3
  binding signal: 0.944
SPIC
  binding signal: 0.863
ETS2
  binding signal: 0.969
ETV3
  binding signal: 0.901

## ACCCGT
ELK1
  binding signal: 0.862
ELK3
  binding signal: 0.874
SPIC
  binding signal: 0.967
ETS2
  binding signal: 0.899
ETV3
  binding signal: 0.947

## CCAAGT
ELK1
  binding signal: 0.882
ELK3
  binding signal: 0.89
SPIC
  binding signal: 0.974
ETS2
  binding signal: 0.88
ETV3
  binding signal: 0.969
